According to the supplement of paper PMC10849652:
The list shows a part of the results.

Amino acid sequences for entries named in this document (tags omitted). A change or cut given only in a name is not applied to a line headed by its entry.
UniProt O75907: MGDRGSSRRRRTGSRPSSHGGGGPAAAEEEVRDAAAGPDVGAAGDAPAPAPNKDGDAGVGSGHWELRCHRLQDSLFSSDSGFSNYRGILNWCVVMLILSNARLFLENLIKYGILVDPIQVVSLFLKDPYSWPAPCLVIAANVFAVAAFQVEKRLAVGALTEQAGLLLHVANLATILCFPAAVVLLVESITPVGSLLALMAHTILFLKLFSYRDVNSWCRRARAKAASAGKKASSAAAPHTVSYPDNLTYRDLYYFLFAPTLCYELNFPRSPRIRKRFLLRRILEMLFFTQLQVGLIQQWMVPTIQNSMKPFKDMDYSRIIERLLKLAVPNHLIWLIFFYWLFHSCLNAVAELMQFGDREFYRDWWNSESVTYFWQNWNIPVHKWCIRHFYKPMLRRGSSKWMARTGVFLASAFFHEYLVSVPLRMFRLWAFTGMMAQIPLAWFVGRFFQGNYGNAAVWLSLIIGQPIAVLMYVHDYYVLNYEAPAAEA
UniProt Q9BTC0, whole entry, looked up: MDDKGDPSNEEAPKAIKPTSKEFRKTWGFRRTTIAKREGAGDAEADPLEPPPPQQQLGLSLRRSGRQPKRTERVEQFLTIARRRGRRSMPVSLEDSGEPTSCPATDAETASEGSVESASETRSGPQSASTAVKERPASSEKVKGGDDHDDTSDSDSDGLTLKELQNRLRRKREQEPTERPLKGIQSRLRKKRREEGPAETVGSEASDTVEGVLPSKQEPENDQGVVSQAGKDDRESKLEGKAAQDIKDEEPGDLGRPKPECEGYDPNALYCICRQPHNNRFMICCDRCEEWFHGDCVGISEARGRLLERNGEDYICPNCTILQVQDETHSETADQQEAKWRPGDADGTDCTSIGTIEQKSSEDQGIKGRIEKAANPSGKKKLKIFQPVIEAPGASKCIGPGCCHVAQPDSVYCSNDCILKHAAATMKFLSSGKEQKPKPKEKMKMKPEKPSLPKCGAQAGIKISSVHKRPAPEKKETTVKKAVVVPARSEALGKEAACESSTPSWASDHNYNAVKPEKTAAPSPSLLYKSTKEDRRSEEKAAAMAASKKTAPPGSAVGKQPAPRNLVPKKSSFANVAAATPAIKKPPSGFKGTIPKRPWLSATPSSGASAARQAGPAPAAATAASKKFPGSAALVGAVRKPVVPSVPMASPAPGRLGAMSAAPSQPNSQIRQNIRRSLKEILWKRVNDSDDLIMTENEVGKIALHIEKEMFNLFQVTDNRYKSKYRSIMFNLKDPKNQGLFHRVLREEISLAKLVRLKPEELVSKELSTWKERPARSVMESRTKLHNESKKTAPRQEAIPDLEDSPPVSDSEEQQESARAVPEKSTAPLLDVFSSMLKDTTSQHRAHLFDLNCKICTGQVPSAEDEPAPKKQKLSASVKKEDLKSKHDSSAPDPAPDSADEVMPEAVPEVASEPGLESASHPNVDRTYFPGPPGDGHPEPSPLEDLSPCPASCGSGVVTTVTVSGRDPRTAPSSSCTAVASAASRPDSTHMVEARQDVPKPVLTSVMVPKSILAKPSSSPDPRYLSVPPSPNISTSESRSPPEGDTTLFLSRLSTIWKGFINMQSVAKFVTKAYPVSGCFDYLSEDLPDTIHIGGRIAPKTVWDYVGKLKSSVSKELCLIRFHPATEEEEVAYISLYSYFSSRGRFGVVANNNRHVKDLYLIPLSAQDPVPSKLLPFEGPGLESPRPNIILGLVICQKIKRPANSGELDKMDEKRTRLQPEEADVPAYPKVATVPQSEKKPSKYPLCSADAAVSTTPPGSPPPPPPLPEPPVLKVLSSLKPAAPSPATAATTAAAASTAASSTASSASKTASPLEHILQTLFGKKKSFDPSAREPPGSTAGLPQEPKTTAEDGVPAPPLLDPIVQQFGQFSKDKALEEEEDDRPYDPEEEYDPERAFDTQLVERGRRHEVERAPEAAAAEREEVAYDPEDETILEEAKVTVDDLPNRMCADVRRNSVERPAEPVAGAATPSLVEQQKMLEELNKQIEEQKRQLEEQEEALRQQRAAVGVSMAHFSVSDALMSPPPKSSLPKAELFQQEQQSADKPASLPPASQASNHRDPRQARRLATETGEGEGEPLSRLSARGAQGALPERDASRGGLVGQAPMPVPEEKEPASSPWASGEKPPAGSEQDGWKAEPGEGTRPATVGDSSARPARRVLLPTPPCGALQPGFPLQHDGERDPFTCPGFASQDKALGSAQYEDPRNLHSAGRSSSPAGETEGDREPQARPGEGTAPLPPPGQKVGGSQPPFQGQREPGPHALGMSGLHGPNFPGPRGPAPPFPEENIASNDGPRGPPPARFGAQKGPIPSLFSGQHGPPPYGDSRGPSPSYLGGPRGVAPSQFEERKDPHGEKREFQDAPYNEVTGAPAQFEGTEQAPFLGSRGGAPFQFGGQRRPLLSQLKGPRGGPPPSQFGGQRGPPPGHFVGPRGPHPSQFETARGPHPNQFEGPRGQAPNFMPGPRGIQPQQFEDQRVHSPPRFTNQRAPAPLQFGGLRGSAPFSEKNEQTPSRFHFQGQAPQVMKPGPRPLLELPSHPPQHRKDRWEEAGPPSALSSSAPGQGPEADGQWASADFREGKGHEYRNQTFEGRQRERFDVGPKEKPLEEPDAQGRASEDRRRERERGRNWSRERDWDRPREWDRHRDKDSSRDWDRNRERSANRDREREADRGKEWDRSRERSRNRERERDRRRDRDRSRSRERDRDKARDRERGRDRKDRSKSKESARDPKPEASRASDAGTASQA
UniProt P25685, whole entry, looked up: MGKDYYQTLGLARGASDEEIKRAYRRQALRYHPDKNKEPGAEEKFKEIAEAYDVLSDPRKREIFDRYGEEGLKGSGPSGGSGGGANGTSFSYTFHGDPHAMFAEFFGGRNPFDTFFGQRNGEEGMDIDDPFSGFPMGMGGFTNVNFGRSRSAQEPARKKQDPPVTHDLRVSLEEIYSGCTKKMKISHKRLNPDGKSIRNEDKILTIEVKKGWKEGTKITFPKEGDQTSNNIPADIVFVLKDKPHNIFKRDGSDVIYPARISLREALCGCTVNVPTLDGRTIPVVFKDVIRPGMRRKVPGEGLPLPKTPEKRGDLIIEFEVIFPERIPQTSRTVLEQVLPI
UniProt Q6P3W2: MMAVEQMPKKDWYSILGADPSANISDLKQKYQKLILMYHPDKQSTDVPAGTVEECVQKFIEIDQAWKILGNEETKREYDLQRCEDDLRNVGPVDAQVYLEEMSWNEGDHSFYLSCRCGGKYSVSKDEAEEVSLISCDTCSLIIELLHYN
UniProt Q8N5I4: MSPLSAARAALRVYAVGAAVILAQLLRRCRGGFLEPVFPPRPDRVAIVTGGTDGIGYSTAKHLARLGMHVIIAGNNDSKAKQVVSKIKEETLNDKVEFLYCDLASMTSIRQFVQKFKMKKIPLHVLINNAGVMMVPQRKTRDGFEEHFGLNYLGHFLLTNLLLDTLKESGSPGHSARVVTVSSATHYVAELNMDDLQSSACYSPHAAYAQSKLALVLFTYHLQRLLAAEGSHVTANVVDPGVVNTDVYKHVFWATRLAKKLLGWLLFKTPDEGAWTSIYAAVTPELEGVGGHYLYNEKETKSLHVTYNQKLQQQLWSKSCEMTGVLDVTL
UniProt Q96GE9: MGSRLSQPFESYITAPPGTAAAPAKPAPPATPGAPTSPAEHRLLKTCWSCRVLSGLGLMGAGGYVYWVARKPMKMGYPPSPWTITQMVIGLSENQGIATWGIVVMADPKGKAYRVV
UniProt Q9Y2H0: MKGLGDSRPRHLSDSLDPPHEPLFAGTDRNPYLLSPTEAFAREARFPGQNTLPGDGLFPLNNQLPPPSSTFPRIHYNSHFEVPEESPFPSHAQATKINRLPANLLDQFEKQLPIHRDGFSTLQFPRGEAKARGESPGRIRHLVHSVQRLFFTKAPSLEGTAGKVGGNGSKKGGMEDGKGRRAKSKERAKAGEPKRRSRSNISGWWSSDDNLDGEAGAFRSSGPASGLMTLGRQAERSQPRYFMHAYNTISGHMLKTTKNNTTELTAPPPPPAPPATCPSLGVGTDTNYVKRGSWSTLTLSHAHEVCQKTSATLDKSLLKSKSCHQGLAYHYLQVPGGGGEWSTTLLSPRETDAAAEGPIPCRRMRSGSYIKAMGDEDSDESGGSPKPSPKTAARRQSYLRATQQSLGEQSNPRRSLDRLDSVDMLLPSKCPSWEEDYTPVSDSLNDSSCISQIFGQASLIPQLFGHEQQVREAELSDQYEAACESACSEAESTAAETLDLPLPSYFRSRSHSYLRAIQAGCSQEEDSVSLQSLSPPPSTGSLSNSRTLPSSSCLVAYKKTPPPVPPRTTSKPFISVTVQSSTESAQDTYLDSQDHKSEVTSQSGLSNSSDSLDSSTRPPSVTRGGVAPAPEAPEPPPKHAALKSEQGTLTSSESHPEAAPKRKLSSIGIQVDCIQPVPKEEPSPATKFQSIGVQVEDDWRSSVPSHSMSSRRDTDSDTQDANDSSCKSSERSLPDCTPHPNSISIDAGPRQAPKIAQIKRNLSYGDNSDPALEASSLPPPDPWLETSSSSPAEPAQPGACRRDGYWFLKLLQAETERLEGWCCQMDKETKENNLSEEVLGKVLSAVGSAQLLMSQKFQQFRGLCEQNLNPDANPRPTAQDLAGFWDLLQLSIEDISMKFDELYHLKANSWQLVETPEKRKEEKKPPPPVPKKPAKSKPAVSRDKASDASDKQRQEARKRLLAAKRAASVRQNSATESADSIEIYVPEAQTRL
UniProt Q9NR28: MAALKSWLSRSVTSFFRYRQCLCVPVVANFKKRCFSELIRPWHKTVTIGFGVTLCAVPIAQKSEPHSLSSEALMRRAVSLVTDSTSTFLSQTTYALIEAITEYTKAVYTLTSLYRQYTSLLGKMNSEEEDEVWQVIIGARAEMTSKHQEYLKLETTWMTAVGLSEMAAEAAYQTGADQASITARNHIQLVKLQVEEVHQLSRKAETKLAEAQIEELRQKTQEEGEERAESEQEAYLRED
UniProt Q96EY1: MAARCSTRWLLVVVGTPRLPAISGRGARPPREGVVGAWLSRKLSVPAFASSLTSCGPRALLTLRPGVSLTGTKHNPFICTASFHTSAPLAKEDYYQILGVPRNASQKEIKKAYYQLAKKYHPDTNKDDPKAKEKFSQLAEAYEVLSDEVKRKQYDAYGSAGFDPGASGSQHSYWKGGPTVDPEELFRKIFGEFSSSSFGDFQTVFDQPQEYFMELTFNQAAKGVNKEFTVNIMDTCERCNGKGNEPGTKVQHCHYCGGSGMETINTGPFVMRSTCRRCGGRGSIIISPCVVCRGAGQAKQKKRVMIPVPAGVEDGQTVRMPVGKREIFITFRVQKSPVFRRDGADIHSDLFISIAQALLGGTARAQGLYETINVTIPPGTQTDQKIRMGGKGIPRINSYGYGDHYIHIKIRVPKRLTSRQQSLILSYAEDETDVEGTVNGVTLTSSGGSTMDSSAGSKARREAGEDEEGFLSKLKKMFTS
UniProt P00374: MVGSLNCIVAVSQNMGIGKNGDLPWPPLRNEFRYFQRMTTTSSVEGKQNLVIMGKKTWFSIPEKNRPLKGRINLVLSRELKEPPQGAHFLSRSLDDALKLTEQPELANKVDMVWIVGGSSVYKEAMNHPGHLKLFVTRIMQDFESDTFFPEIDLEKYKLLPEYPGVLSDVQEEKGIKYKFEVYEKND
UniProt O75190: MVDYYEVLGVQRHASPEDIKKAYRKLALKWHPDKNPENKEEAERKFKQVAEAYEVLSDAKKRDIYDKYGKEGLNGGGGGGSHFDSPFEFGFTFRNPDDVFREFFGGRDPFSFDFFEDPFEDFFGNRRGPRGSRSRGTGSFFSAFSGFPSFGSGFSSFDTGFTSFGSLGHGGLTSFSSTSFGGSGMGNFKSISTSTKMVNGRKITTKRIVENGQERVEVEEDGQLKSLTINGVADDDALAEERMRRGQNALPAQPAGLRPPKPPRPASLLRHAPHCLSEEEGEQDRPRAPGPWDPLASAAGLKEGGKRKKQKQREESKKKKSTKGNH
UniProt Q96DA6: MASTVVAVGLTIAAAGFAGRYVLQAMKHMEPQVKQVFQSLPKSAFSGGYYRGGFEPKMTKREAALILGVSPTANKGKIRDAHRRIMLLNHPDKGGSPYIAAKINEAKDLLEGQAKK
UniProt Q9UBS4: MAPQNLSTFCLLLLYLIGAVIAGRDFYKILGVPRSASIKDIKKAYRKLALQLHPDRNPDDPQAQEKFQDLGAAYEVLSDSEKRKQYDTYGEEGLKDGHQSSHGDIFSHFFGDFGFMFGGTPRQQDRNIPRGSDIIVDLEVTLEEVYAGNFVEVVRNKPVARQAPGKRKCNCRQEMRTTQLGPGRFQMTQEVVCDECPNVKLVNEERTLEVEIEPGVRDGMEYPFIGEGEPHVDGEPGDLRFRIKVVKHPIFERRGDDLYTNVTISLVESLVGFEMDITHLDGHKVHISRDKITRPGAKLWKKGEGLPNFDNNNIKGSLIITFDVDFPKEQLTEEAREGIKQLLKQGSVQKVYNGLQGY

Key:
Test in all cases: log2 fold change, soluble protein after heating vs DMSO (PISA); higher = thermal stabilisation; K562 lysate, 10 uM; active = over 0.2 and 3.5 SD of the protein, either way, in both replicates (recomputed)
[1] = compound: NCC(=O)Nc1ccc(-n2nc(C(F)(F)F)cc2-c2ccc3c(ccc4ccccc43)c2)cc1
How it was run: (§1)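 K562 pellets were dounce-homogenised in PBS pH 7.4 with 1 mM MgCl2, and the crude extract at 1 mg/mL protein was treated with 10 μM compound for 30 min. Aliquots were heated for 3 min across 48°C-58°C, pooled, and brought to 0.5% NP-40 at 4°C; soluble protein was the supernatant after 21,000xg for 90 min. Soluble protein was quantified by TMTpro 16plex LC-MS/MS with channel sums equalised, and reported as log2 fold change in thermal stability against DMSO controls, with values from duplicates.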

vorinostat = compound: O=C(CCCCCCC(=O)Nc1ccccc1)NO [vorinostat]
How it was run: as §1

silmitasertib = compound: O=C(O)c1ccc2c(c1)nc(Nc1cccc(Cl)c1)c1ccncc12 [silmitasertib]
How it was run: as §1

[2] = compound: O=C1NC(=O)C(c2cnc3ccccn23)=C1c1cn2c3c(cc(F)cc13)CN(C(=O)N1CCCCC1)CC2
How it was run: as §1

entospletinib = compound: c1cn2cc(-c3ccc4cn[nH]c4c3)nc(Nc3ccc(N4CCOCC4)cc3)c2n1 [entospletinib]
How it was run: as §1

Measured: log2 fold change

DNAH5 (UniProt Q8TE73)
inactive: [1] 0.008 | vorinostat 0.113 | silmitasertib -0.179

DGAT1 (UniProt O75907)
inactive: [1] -0.016 | vorinostat -0.045 | silmitasertib 0.027 | [2] -0.063 | entospletinib -0.032

DIDO1 (UniProt Q9BTC0)
inactive: [1] -0.006 | vorinostat -0.105 | silmitasertib -0.045 | [2] 0.012 | entospletinib -0.012

DNAJB1 (UniProt P25685)
inactive: [1] -0.027 | vorinostat -0.062 | silmitasertib 0.012 | [2] -0.02 | entospletinib 0.001

DHX40 (UniProt Q8IX18)
inactive: [1] -0.052 | vorinostat -0.063 | silmitasertib 0.059 | [2] -0.039 | entospletinib -0.001

DNAJC24 (UniProt Q6P3W2)
inactive: [1] -0.159 | vorinostat 0.053 | silmitasertib -0.017 | [2] -0.014 | entospletinib -0.046

DHX36 (UniProt Q9H2U1)
inactive: [1] 0.011 | vorinostat -0.006 | silmitasertib -0.007 | [2] -0.016 | entospletinib -0.029

DHRSX (UniProt Q8N5I4)
inactive: [1] 0.011 | vorinostat 0.044 | silmitasertib -0.177

DMAC1 (UniProt Q96GE9)
inactive: [1] -0.031

DLGAP4 (UniProt Q9Y2H0)
inactive: [1] -0.013 | vorinostat 0.023 | silmitasertib 0.017 | [2] 0.006 | entospletinib -0.011

DOCK11 (UniProt Q5JSL3)
inactive: [1] -0.001 | vorinostat -0.148 | silmitasertib 0.036 | [2] 0.006 | entospletinib -0.001

DNHD1 (UniProt Q96M86)
inactive: [1] 0.232 | vorinostat 0.038 | silmitasertib -0.009 | [2] -0.065

Reprinted from the results shown (7 entries):
DIDO1 (UniProt Q9BTC0)
inactive: [1] -0.006 | vorinostat -0.105 | silmitasertib -0.045 | [2] 0.012 | entospletinib -0.012

DNAJB1 (UniProt P25685)
inactive: [1] -0.027 | vorinostat -0.062 | silmitasertib 0.012 | [2] -0.02 | entospletinib 0.001

DHX40 (UniProt Q8IX18)
inactive: [1] -0.052 | vorinostat -0.063 | silmitasertib 0.059 | [2] -0.039 | entospletinib -0.001

DNAJC24 (UniProt Q6P3W2)
inactive: [1] -0.159 | vorinostat 0.053 | silmitasertib -0.017 | [2] -0.014 | entospletinib -0.046

DHX36 (UniProt Q9H2U1)
inactive: [1] 0.011 | vorinostat -0.006 | silmitasertib -0.007 | [2] -0.016 | entospletinib -0.029

DHRSX (UniProt Q8N5I4)
inactive: [1] 0.011 | vorinostat 0.044 | silmitasertib -0.177

DMAC1 (UniProt Q96GE9)
inactive: [1] -0.031

Following part.

DNAJC13 (UniProt O75165)
inactive: [1] 0 | vorinostat 0.029 | silmitasertib -0.001 | [2] 0.041 | entospletinib -0.023

DLST (UniProt P36957)
inactive: [1] 0.011 | vorinostat 0.154 | silmitasertib -0.026 | [2] -0.008 | entospletinib -0.028

DIABLO (UniProt Q9NR28)
inactive: [1] -0.017 | vorinostat 0.135 | silmitasertib -0.002 | [2] -0.007 | entospletinib 0.019

DMTN (UniProt Q08495)
inactive: [1] 0.03 | vorinostat 0.063 | silmitasertib -0.042 | [2] -0.018 | entospletinib -0.018

DNAJA3 (UniProt Q96EY1)
inactive: [1] 0.01 | vorinostat 0.049 | silmitasertib -0.002 | [2] 0.048 | entospletinib -0.014

DOT1L isoform 1 (UniProt Q8TEK3)
inactive: [1] 0.008 | vorinostat -0.06 | silmitasertib -0.003 | [2] -0.084 | entospletinib -0.011

DHFR (UniProt P00374)
inactive: [1] -0.045 | vorinostat -0.214 | silmitasertib 0.133 | [2] 0 | entospletinib 0.002

DIAPH1 (UniProt H9KV28)
inactive: [1] -0.002 | vorinostat 0.087 | silmitasertib 0.084 | [2] -0.083 | entospletinib -0.113

DNAJB6 (UniProt O75190)
inactive: [1] 0.041 | vorinostat 0.069 | silmitasertib -0.04 | [2] -0.029 | entospletinib 0.004

DNAJC19 (UniProt Q96DA6)
inactive: [1] -0.039 | vorinostat 0.143 | silmitasertib -0.01 | [2] 0.036 | entospletinib 0.018

DKC1 (UniProt O60832)
inactive: [1] 0.023 | vorinostat 0.133 | silmitasertib -0.019 | [2] 0.014 | entospletinib 0.002

DNAJC10 (UniProt Q8IXB1)
inactive: [1] 0.048 | vorinostat 0.081 | silmitasertib -0.033 | [2] -0.027 | entospletinib -0.01

DLG3 isoform 2 (UniProt Q92796)
inactive: [1] 0.067 | vorinostat -0.023 | silmitasertib -0.025 | [2] -0.036 | entospletinib -0.007

DNAJB11 (UniProt Q9UBS4)
inactive: [1] 0.046 | vorinostat 0.075 | silmitasertib -0.016 | [2] -0.004 | entospletinib 0.002
